Test results reported in PubChem BioAssay AID256 (DTP/NCI, 2004).
The list does not hold the whole screen: it gathers tests that were run many times, whatever their T/C, doses with no T/C, and many T/C values between a quarter and a half above the control. Other doses and runs of a compound stand elsewhere. T/C gives the treated animals as a percentage of the vehicle group. Some doses have a count of surviving animals in place of a T/C: the source holds a T/C of zero for them, seemingly a mark for toxic or unscored doses. Some doses without a T/C left all or most animals alive at the check, yet need not have been tolerated: survival well below the control is almost never listed, so the zero probably covers shortened survival too. Survivors were counted at the toxicity check, usually on the fifth day, unless a day is given; later deaths do not show. Schedules are NCI's codes, taken here to give the interval after Q, in days (D) or hours (H), and the number of doses after X. Some entries hold several experiments; the values are given in rising order. For survival time, the PubChem record calls one and a half times the control and up active, and a quarter to a half above the control has no call in these data; cut-offs in other NCI protocols can differ. Some T/C values carry the count of animals alive at the toxicity check (mostly the fifth day); without a count, all were alive then.

Tested on: CD2F1 mice, L1210 leukemia ip, survival T/C
Assay: NCI In Vivo Anticancer Drug Screen. Data for tumor model L1210 Leukemia (intraperitoneal) in CD2F1 (CDF1) mice
Conditions: higher T/C = longer survival
Summary of the method: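 In this screen, transplantable tumors were grown in mice given either the compound or its vehicle. Results were expressed as the treated measurement relative to the control measurement.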

[1] = T/C endpoint: median survival time, dose: 200.0 mg/kg/injection, schedule: Q01DX005 (ip), vehicle: sodium bicarbonate
[2] = T/C endpoint: median survival time, dose: 400.0 mg/kg/injection, schedule: Q01DX005 (ip), vehicle: sodium bicarbonate
[3] = T/C endpoint: mean survival time, dose: 100.0 mg/kg/injection, schedule: Q04DX003 (ip), vehicle: saline with Tween-80
[4] = T/C endpoint: mean survival time, dose: 400.0 mg/kg/injection, schedule: Q04DX003 (ip), vehicle: saline with Tween-80

SMILES: Cc1c(-c2ccc(C3CCCCC3)cc2)nc2ccc(F)cc2c1C(=O)O
- T/C (T/C endpoint: median survival time, dose: 12.5 mg/kg/injection, schedule: Q01DX005 (ip), vehicle: sodium bicarbonate): 127 % of control
- T/C (T/C endpoint: median survival time, dose: 25.0 mg/kg/injection, schedule: Q01DX005 (ip), vehicle: sodium bicarbonate): 128 % of control
- T/C (T/C endpoint: median survival time, dose: 25.0 mg/kg/injection, schedule: Q01DX009 (ip), vehicle: Klucel (hydroxypropylcellulose) (HPC)): 136 % of control
- T/C (T/C endpoint: median survival time, dose: 25.0 mg/kg/injection, schedule: Q01DX009 (ip), vehicle: saline with Tween-80, evaluated on day 20): 132 % of control
- T/C (T/C endpoint: median survival time, dose: 25.0 mg/kg/injection, schedule: Q01DX009 (ip), vehicle: saline with Tween-80, evaluated on day 30): 125 and 127 % of control
- T/C (T/C endpoint: median survival time, dose: 25.0 mg/kg/injection, schedule: Q01DX009 (ip), vehicle: saline with Tween-80, evaluated on day 32): 117 % of control [5 of 6 alive]
- T/C (T/C endpoint: median survival time, dose: 25.0 mg/kg/injection, schedule: Q01DX009 (ip), vehicle: saline with Tween-80, evaluated on day 60): 136 % of control
- T/C (T/C endpoint: median survival time, dose: 50.0 mg/kg/injection, schedule: Q01DX005 (ip), vehicle: Klucel (hydroxypropylcellulose) (HPC)): 131 % of control [5 of 6 alive]
- T/C (T/C endpoint: median survival time, dose: 50.0 mg/kg/injection, schedule: Q01DX009 (ip), vehicle: Klucel (hydroxypropylcellulose) (HPC)): 149 % of control
- T/C (T/C endpoint: median survival time, dose: 50.0 mg/kg/injection, schedule: Q01DX009 (ip), vehicle: saline with Tween-80, evaluated on day 20): 139 % of control
- T/C (T/C endpoint: median survival time, dose: 50.0 mg/kg/injection, schedule: Q01DX009 (ip), vehicle: saline with Tween-80, evaluated on day 30): 116 [2 of 3 alive] and 128 % of control
- T/C (T/C endpoint: median survival time, dose: 50.0 mg/kg/injection, schedule: Q01DX009 (ip), vehicle: saline with Tween-80, evaluated on day 32): 121 % of control
- T/C (T/C endpoint: median survival time, dose: 50.0 mg/kg/injection, schedule: Q01DX009 (ip), vehicle: saline with Tween-80, evaluated on day 35): 147 % of control
- T/C (T/C endpoint: median survival time, dose: 50.0 mg/kg/injection, schedule: Q01DX009 (ip), vehicle: saline with Tween-80, evaluated on day 60): 156 % of control
- T/C (T/C endpoint: median survival time, dose: 100.0 mg/kg/injection, schedule: Q01DX005 (ip), vehicle: Klucel (hydroxypropylcellulose) (HPC)): 132 % of control
- T/C (T/C endpoint: median survival time, dose: 100.0 mg/kg/injection, schedule: Q01DX005 (ip), vehicle: sodium bicarbonate): 130 % of control [4 of 6 alive]
- T/C (T/C endpoint: median survival time, dose: 100.0 mg/kg/injection, schedule: Q01DX009 (ip), vehicle: saline with Tween-80, evaluated on day 20): 168 % of control
- T/C (T/C endpoint: median survival time, dose: 100.0 mg/kg/injection, schedule: Q01DX009 (ip), vehicle: saline with Tween-80, evaluated on day 30): 128 and 144 % of control
- T/C (T/C endpoint: median survival time, dose: 100.0 mg/kg/injection, schedule: Q01DX009 (ip), vehicle: saline with Tween-80, evaluated on day 32): 133 % of control
- T/C (T/C endpoint: median survival time, dose: 100.0 mg/kg/injection, schedule: Q01DX009 (ip), vehicle: saline with Tween-80, evaluated on day 35): 161 % of control
- T/C (T/C endpoint: median survival time, dose: 100.0 mg/kg/injection, schedule: Q01DX009 (ip), vehicle: saline with Tween-80, evaluated on day 60): 189 % of control
- T/C (T/C endpoint: median survival time, dose: 200.0 mg/kg/injection, schedule: Q01DX005 (ip), vehicle: Klucel (hydroxypropylcellulose) (HPC)): 132 % of control
- T/C [1]: 125 and 127 % of control [5 of 6 alive]
- survivor count [1]: 3 of 6
- T/C (T/C endpoint: median survival time, dose: 200.0 mg/kg/injection, schedule: Q01DX009 (ip), vehicle: saline with Tween-80, evaluated on day 20): 179 % of control
- T/C (T/C endpoint: median survival time, dose: 200.0 mg/kg/injection, schedule: Q01DX009 (ip), vehicle: saline with Tween-80, evaluated on day 30): 151 and 161 % of control
- T/C (T/C endpoint: median survival time, dose: 200.0 mg/kg/injection, schedule: Q01DX009 (ip), vehicle: saline with Tween-80, evaluated on day 32): 155 % of control [5 of 6 alive]
- T/C (T/C endpoint: median survival time, dose: 200.0 mg/kg/injection, schedule: Q01DX009 (ip), vehicle: saline with Tween-80, evaluated on day 35): 162 % of control
- T/C (T/C endpoint: median survival time, dose: 200.0 mg/kg/injection, schedule: Q01DX009 (ip), vehicle: saline with Tween-80, evaluated on day 60): 189 % of control
- T/C [2]: 134 % of control [5 of 6 alive]
- survivor count [2]: 0 of 6 and 3 of 6
- T/C (T/C endpoint: median survival time, dose: 400.0 mg/kg/injection, schedule: Q01DX009 (ip), vehicle: saline with Tween-80, evaluated on day 20): 181 % of control [5 of 6 alive]
- T/C (T/C endpoint: median survival time, dose: 400.0 mg/kg/injection, schedule: Q01DX009 (ip), vehicle: saline with Tween-80, evaluated on day 30): 167 % of control
- T/C (T/C endpoint: median survival time, dose: 400.0 mg/kg/injection, schedule: Q01DX009 (ip), vehicle: saline with Tween-80, evaluated on day 32): 111 % of control [5 of 6 alive]
- T/C (T/C endpoint: median survival time, dose: 400.0 mg/kg/injection, schedule: Q01DX009 (ip), vehicle: saline with Tween-80, evaluated on day 35): 197 % of control
- T/C (T/C endpoint: median survival time, dose: 400.0 mg/kg/injection, schedule: Q01DX009 (ip), vehicle: saline with Tween-80, evaluated on day 60): 184 % of control
- survivor count (T/C endpoint: median survival time, dose: 400.0 mg/kg/injection, schedule: Q01DX009 (ip), vehicle: saline with Tween-80): 2 of 3
- survivor count (T/C endpoint: median survival time, dose: 800.0 mg/kg/injection, schedule: Q01DX005 (ip), vehicle: sodium bicarbonate): 0 of 6

SMILES: CCCCOC(=O)C=O
- survivor count (T/C endpoint: mean survival time, dose: 100.0 mg/kg/injection, schedule: Q01DX009 (ip), vehicle: saline with Tween-80): 3 of 3

SMILES: CN(C)/N=N\c1ncn(C2OC(CO)C(O)C2O)c1C(N)=O (stereo not given)
- T/C (T/C endpoint: mean survival time, dose: 200.0 mg/kg/injection, schedule: Q01DX005 (ip), vehicle: saline): 129 % of control

SMILES: Nc1nc([S-])c2[nH]cnc2n1.[Cl-].[Cl-].[H+].[Pd+2].[Pd+2].[Pd+2]
- T/C (T/C endpoint: mean survival time, dose: 12.5 mg/kg/injection, schedule: Q04DX003 (ip), vehicle: saline with Tween-80): 142 % of control
- T/C (T/C endpoint: mean survival time, dose: 12.5 mg/kg/injection, schedule: Q04DX003 (ip), vehicle: suspension in saline): 149 % of control
- T/C (T/C endpoint: mean survival time, dose: 25.0 mg/kg/injection, schedule: Q04DX003 (ip), vehicle: saline with Tween-80): 146 % of control
- T/C (T/C endpoint: mean survival time, dose: 25.0 mg/kg/injection, schedule: Q04DX003 (ip), vehicle: suspension in saline): 140 and 149 % of control
- T/C (T/C endpoint: mean survival time, dose: 50.0 mg/kg/injection, schedule: Q04DX003 (ip), vehicle: saline with Tween-80): 142 % of control
- T/C [3]: 137 % of control
- survivor count (T/C endpoint: mean survival time, dose: 200.0 mg/kg/injection, schedule: Q04DX003 (ip), vehicle: suspension in saline): 6 of 6
- survivor count (T/C endpoint: mean survival time, dose: 400.0 mg/kg/injection, schedule: Q04DX003 (ip), vehicle: suspension in saline): 6 of 6

SMILES: CN(C)C1(Cc2ccccc2)c2ccccc2-c2ccc(Br)cc21 (stereo not given)
- survivor count [4]: 6 of 6

SMILES: Cc1ccccc1N1CCN(c2ccccc2C)C1=C1N(c2ccccc2C)CCN1c1ccccc1C
- survivor count (T/C endpoint: mean survival time, dose: 0.39 mg/kg/injection, schedule: Q01DX009 (ip), vehicle: DMSO): 2 of 3
- survivor count (T/C endpoint: mean survival time, dose: 0.78 mg/kg/injection, schedule: Q01DX009 (ip), vehicle: DMSO): 1 of 2
- survivor count (T/C endpoint: mean survival time, dose: 1.56 mg/kg/injection, schedule: Q01DX009 (ip), vehicle: DMSO): 2 of 3
- survivor count (T/C endpoint: mean survival time, dose: 3.12 mg/kg/injection, schedule: Q01DX009 (ip), vehicle: DMSO): 0 of 3
- survivor count (T/C endpoint: mean survival time, dose: 6.25 mg/kg/injection, schedule: Q01DX009 (ip), vehicle: DMSO): 0 of 3
- survivor count (T/C endpoint: mean survival time, dose: 12.5 mg/kg/injection, schedule: Q01DX009 (ip), vehicle: DMSO): 0 of 3
- survivor count (T/C endpoint: mean survival time, dose: 25.0 mg/kg/injection, schedule: Q01DX009 (ip), vehicle: DMSO): 0 of 3
- survivor count (T/C endpoint: mean survival time, dose: 50.0 mg/kg/injection, schedule: Q01DX009 (ip), vehicle: DMSO): 0 of 3

SMILES: CC1(C(F)(F)F)CC(=O)NN1 (stereo not given)
- survivor count (T/C endpoint: mean survival time, dose: 200.0 mg/kg/injection, schedule: Q04DX003 (ip), vehicle: saline with Tween-80): 3 of 6
- survivor count [4]: 0 of 6

SMILES: Cc1cn(C2CC(O)C(Cn3ccc4ccccc43)O2)c(=O)[nH]c1=O (stereo not given)
- survivor count (T/C endpoint: mean survival time, dose: 50.0 mg/kg/injection, schedule: Q01DX005 (ip), vehicle: Klucel (hydroxypropylcellulose) (HPC)): 5 of 5
- survivor count (T/C endpoint: mean survival time, dose: 100.0 mg/kg/injection, schedule: Q01DX005 (ip), vehicle: Klucel (hydroxypropylcellulose) (HPC)): 5 of 5
- survivor count (T/C endpoint: mean survival time, dose: 200.0 mg/kg/injection, schedule: Q01DX005 (ip), vehicle: Klucel (hydroxypropylcellulose) (HPC)): 5 of 5

SMILES: O=[N+]([O-])c1ccc(Nc2cccc(Cl)c2)c([N+](=O)[O-])c1
- survivor count [3]: 6 of 6
- survivor count [4]: 6 of 6

SMILES: ClCc1cnc[nH]1
- survivor count (T/C endpoint: mean survival time, dose: 400.0 mg/kg/injection, schedule: Q04DX002 (ip), vehicle: saline): 0 of 3
